# Results published in paper PMC12040169 (PLOS Biology, 2025).
# The list shows a part of the results.
# System: T1, CTL2-GFP (C. trachomatis L2/434/Bu, GFP-expressing)
# T1 construct: L2/434/Bu, GFP-expressing
# Set-up: species or system HeLa; Intracellular C. trachomatis growth in HeLa cells, bulk GFP fluorescence relative to DMSO
# Settings: bulk GFP, single well; 28.5 h, 10 µM; inhibitor
row,Structure (SMILES),% of control remaining [%]
1,Cc1ccc(-c2cn(S(=O)(=O)c3cccc4nsnc34)nc2N)cc1 [CBK268871],86.4582
2,CCOC(=O)C(C)n1nc(C)n2c(cc3sc(C)cc32)c1=O (centres unmarked) [CBK284066],136.973
3,Cn1cc(-c2nc(C(=O)N3CCN(c4ncccn4)CC3)cs2)cn1 [CBK305626],148.12
4,CN(C)S(=O)(=O)N(CC(=O)N1CCN(Cc2ccccc2)CC1)c1ccccc1 [CBK268423],126.767
5,O=C(NCc1cccs1)N1CCCN(Cc2ccc(F)cc2)CC1 [CBK306294],168.888
6,CCN(CC)S(=O)(=O)c1ccc2c(c1)CCCN2C(=O)c1ccc(C#N)cc1 [CBK295161],143.828
7,COc1ncc(-c2cncc(NCc3cccc(Cl)c3)n2)c(OC)n1 [CBK065211],240.639
8,COc1ccc(CCC(=O)N2CCCCC2c2ncc(-c3cccc(F)c3)[nH]2)cc1OC (centres unmarked) [CBK291148],121.819
9,O=c1ccnc(SCc2cccc(Cl)c2)[nH]1 [CBK288123],120.575
10,O=C(NCC1CCCO1)C1(Cc2ccc(-c3ccc(F)c(F)c3)cc2)CCOCC1 (centres unmarked) [CBK285534],113.968
11,CC1(C)Cc2nc3[nH]nc(N)c3cc2CO1 [CBK261476],121.893
12,COCCCN(Cc1ccccn1)Cc1ccc(F)cc1F [CBK282974],109.939
13,Cc1cnn(CCC(=O)NC(Cc2ccsc2)c2nccs2)c1 (centres unmarked) [CBK284664],158.379
14,Fc1ccc(CCN2CCCCC2c2cc3ccccc3[nH]2)cc1 (centres unmarked) [CBK107227T],50.3485
15,O=C(c1nccs1)C1CCN(C(=O)Cc2ccc(F)cc2)CC1 [CBK284199],98.9262
16,COc1ccc(C)cc1S(=O)(=O)n1ccc2c(CNC3CCN(C(C)C)CC3)cccc21 [CBK113310T],105.259
17,Cc1nn(C(C)C)c(C)c1CN(CCO)Cc1cccs1 [CBK283016],132.784
18,N#Cc1ccc(S(=O)(=O)NC2CCCCNC2=O)cc1 (centres unmarked) [CBK009293],109.303
19,Cc1ccc2[nH]c(SC(C)C(=O)N3CCOCC3)nc2c1 (centres unmarked) [CBK306187],90.3992
20,O=C(CSc1ccc(Cl)cc1)OCC(=O)c1ccccc1 [CBK264306],99.6246
21,Cc1c(Cc2ccccc2)c(N2CCN(Cc3ccccc3)CC2)n2c(nc3ccccc32)c1C#N [CBK263150],100
22,COC(C(=O)N(C)C)C(OC)C(=O)N(C)C (centres unmarked) [CBK005447],118.507
23,O=C(CCn1cnc2cc(-c3noc(-c4cnccn4)n3)ccc21)N1CCCC1 [CBK288595],148.219
24,c1ccc(OCCSc2nc3ccccc3nc2N2CCCC2)cc1 [CBK103694],93.7158
25,O=C(CCC1CCCC1)N1CCC(O)(c2cccnc2)CC1 [CBK283603],128.79
26,Cc1nc(C)c(C(=O)c2coc3ccc(O)cc23)o1 [CBK027631],125.317
27,CC(C)C(NS(=O)(=O)c1ccc([N+](=O)[O-])cc1)C(C)C [CBK267656],110.332

row,Structure (SMILES),% of control remaining [%]
1,N#CCCCN1CCC(Oc2nccnc2OCc2c(F)cccc2Cl)CC1 [CBK153630],118.129
2,Cn1cc(CC(=O)NCc2ccc(OC3CCNCC3)cc2)c2ccccc21 [CBK028430T],124.785
3,Cc1cc(=O)oc2cc(Sc3ccc([N+](=O)[O-])cc3)ccc12 [CBK002954],107.853
4,Cc1cc2c(cc3c(=O)n(CC(=O)N4CCC(C)CC4)nc(C)n32)o1 [CBK283590],150.288
5,Cc1ccc(OCc2ccc(Cl)nc2)c(Br)c1 [CBK002842],113.135
6,CN1CCC(N2CCC[C@H]2c2nc(-c3ccnc(N4CCOCC4)c3)no2)CC1 [CBK288880],129.964
7,N#Cc1ccc2nc([C@H]3CCN(C(=O)C4CCCCC4)C3)[nH]c2c1 [CBK289380],97.1244
8,O=C(O)/C=C\C(=O)N(C1CCCCC1)C1CCCCC1 [CBK286562],95.7973
9,Cc1ccc(S(=O)(=O)N2C[C@H](O)C[C@H]2C(=O)O)cc1 [CBK289276],150.288
10,CNC(=O)c1ccc(-c2ccco2)nc1N1CCOCC1 [CBK106212],74.6818
11,COCC1CN(S(=O)(=O)c2cnc3ccsc3c2)C1 [CBK304768],129.216
12,CCNC(Cc1ccc2ccccc2c1)C(=O)OC (centres unmarked) [CBK071702],103.039
13,Nc1nc(NCCc2ccccc2)nc(-c2cc(Cl)ccc2O)n1 [CBK074551],101.67
14,Cc1cc(C)n(CC(=O)N2CCCC(c3cc4cccnc4[nH]3)C2)n1 (centres unmarked) [CBK284928],121.877
15,COc1ccc([C@@]23CC[C@@H](NC(=O)N(C)c4ccc(C)cc4)C[C@@H]2N(C)CC3)cc1OC [CBK045681T],119.933
16,C/C(=N\Nc1cc(-c2ccccc2)nc(C)n1)c1ccc(O)cc1 [CBK261710],100
17,COc1cc(C2C3=C(CC(C)(C)CC3=O)Nc3ncnn32)ccc1OCC(=O)N1CCOCC1 (centres unmarked) [CBK268551],89.4727
18,CC1=NN(c2ccccc2)C(=O)/C1=C\c1ccc(Cl)cc1 [CBK067772],109.983
19,c1ccc(N2CCN(c3cccc(-c4cc5ccccc5o4)n3)CC2)nc1 [CBK036875],189.562
20,O=C(O)c1c[nH]nc1-c1cccc(Br)c1 [CBK286963],121.484
21,COc1ccc(-c2nnc(SC(C)C(=O)Nc3cc(C)no3)n2CC2CCCO2)cc1 (centres unmarked) [CBK297879],87.8453
22,O=C(O)c1ccc(NC(CC(=O)c2ccccc2)c2ccc(Br)cc2)cc1 (centres unmarked) [CBK266195C],121.3
23,O=C(O)CSc1nnc(-c2sc3ccccc3c2Cl)n1-c1ccccc1 [CBK263830],100
24,Cc1ccccc1-c1cnc(NS(C)(=O)=O)c(C(=O)N(C)C)c1 [CBK106430],94.2239
25,COCCN1CCn2c(nc3cc(NC(=O)C4CCCCC4)ccc32)C1 [CBK307411],124.708
26,FC(F)(F)c1nc2ccccc2nc1OCCc1c[nH]c2ccccc12 [CBK115843],72.9188
27,CN(C)Cc1cc(CN(C)C)c(O)c(CCc2ccccc2)n1 [CBK278316C],101.185

row,Structure (SMILES),% of control remaining [%]
1,C=CCNC(=O)c1cnc(-c2ccc(Cl)cc2)c(-c2ccco2)c1 [CBK036738],150.898
2,CN(C)CCn1c(=O)[nH]c2ncc(-c3ccoc3)nc21 [CBK064294],173.468
3,COCCNC(=O)c1c(NC(=O)c2ccccc2C)sc2c1CCCC2 [CBK091645],121.396
4,O=C1CCC(=O)N1CCOc1nccnc1N1CCNCC1 [CBK074030T],120.473
5,O=c1[nH]c2ncc(-c3ccco3)nc2n1CCCN1CCOCC1 [CBK064319],170.925
6,CN(C)CCN1CCN(c2cc(Nc3ccc(N(C)C)cc3)nc3ccnn23)CC1 [CBK037211],193.048
7,O=C(O)COc1noc2nc3c(cc12)CCCCC3 [CBK269429],113.6
8,CCCNC(=O)Cn1nc(CC)n2c(cc3ccsc32)c1=O [CBK284130],113.226
9,O=C(O)c1ccc(CNC2CC(=O)N(c3ccc(F)cc3)C2=O)cc1 (centres unmarked) [CBK286727],120.038
10,Cc1[nH]c(=O)[nH]c(=S)c1C(=O)Nc1ccc(Cl)cc1C#N [CBK115502],129.202
11,CCOC(=O)N1CCC(NC(=O)N(CCc2ccccc2)Cc2ccccc2)CC1 [CBK155359],77.8006
12,CCOc1ccccc1NC(=O)NCc1cccnc1 [CBK267026],184.277
13,CN1CCc2c(sc3nc(SCc4ccc(Cl)c(Cl)c4)n(-c4ccccc4)c(=O)c23)C1 [CBK263706],113.489
14,CCN1C(=O)CC2(C1=O)C(=O)N(Cc1nc(OC)cc(OC)n1)c1ccccc12 (centres unmarked) [CBK075510],181.923
15,Cc1nn(-c2ccccc2)c(C)c1CNC(=O)C1C2C=CC(C2)C1C(=O)O (centres unmarked) [CBK286877],112.393
16,Brc1c(OCCNCCN2CCOCC2)ccc2ccccc12 [CBK268576G],98.8892
17,O=P(O)(CCc1ccccn1)CN1CCCCC1 [CBK262312],97.393
18,COC(=O)[C@@H](C)NC(=O)[C@@H]1CN(C(=O)NC(C)C)CCN1C(=O)c1cccs1 [CBK289624],91.0527
19,Cc1ccc(NC(=O)CCc2c(C)nc(N3CCOCC3)[nH]c2=O)cc1 [CBK304985],93.0425
20,NC(=O)c1c(NC(=O)Cn2ccc([N+](=O)[O-])n2)sc2c1CCCC2 [CBK269139],99.1615
21,COc1ccc(CN2CCN(C(=O)c3ccc(C#N)cc3)CC2)cc1 [CBK305698],120.634
22,COc1cc(Nc2cc(-c3ccc(F)c(F)c3)ncn2)cc(OC)c1OC [CBK090711],138.749
23,Cc1c(-c2ccc(OCC(N)=O)cc2)nc2ccc(Br)cc2c1C(=O)O [CBK287050],132.544
24,O=[N+]([O-])c1ccccc1S(=O)(=O)N1CCN(S(=O)(=O)c2ccc3ccccc3c2)CC1 [CBK264296],121.288
25,COc1ccc(C(C)NC2CCN(c3nc(C)cs3)CC2)cc1F (centres unmarked) [CBK306362],151.663
26,O=C(Cn1c(C2CCNCC2)cc2cccnc21)N1CCCC1 [CBK285013],111.451

# Part of the list above in another layout:
row | Structure (SMILES) | % of control remaining [%]
3 | COCCNC(=O)c1c(NC(=O)c2ccccc2C)sc2c1CCCC2 [CBK091645] | 121.396
6 | CN(C)CCN1CCN(c2cc(Nc3ccc(N(C)C)cc3)nc3ccnn23)CC1 [CBK037211] | 193.048
9 | O=C(O)c1ccc(CNC2CC(=O)N(c3ccc(F)cc3)C2=O)cc1 (centres unmarked) [CBK286727] | 120.038
11 | CCOC(=O)N1CCC(NC(=O)N(CCc2ccccc2)Cc2ccccc2)CC1 [CBK155359] | 77.8006
15 | Cc1nn(-c2ccccc2)c(C)c1CNC(=O)C1C2C=CC(C2)C1C(=O)O (centres unmarked) [CBK286877] | 112.393
